In US20240174744A1, “METHODS OF TREATMENT USING PROTEIN BINDERS TO IRHOM2 EPITOPES” (SCIRHOM GMBH, priority 2021, published 2024):
Residue numbers refer to the chain shown, from its start. These are yes or no findings as the source states them, for the method shown. Values belong to the binder of their own block, whether it stands above or below them.

Target: mouse iR1 wild type (mouse)
Assay: FACS on cells expressing mouse iR1 wild type

binding: no binding (tested: 3 µg/ml)
B4: antibody 50 (antibody, V domains shown)
VH: QVQLQQSGAELVRPGASVKVSCKASGYAFSNYLIEWVKQRPGQGLEWIGVINPGSGFTKYNEKFKGKATLTADKSSSTAYMQLSSLTSEDSAVYFCARGLYRAMDYWGQGTSVTVSS
VL: DIQMTQSPASQSASLGESVTITCLASQTIGTWLAWYQQKPGKSPQLLIYAAASLADGVPSRFSGGGSGTKFSFKISSLQAEDFVNYYCQQIYSTPYTFGGGTKLEIK

binding: no binding (tested: 3 µg/ml)
B8: antibody 43 (antibody, V domains shown)
VH: QVALKESGPGILQPSQTLSLTCSFSGFSLSTFGMGVGWIRQSSGKGLEWLANIWWDDDKYYNPALKSRLTISKDASKNQAFLKIANVDTADTATYYCARIGNYGSNYWYFDVWGTGTTVTVSS
VL: QIVLTQSPAIMSASPGERVTMTCSANSRISYMYWYQQKPGSSPRLLIYDTSNLASGVPVRFSGSGSGTSYSLTISRMEAEDAATYNCQQWSSYPLTFGAGTKLELK

binding: no binding (tested: 3 µg/ml)
B9: antibody 44 (antibody, V domains shown)
VH: B8 VH with A3T, S42P, G44E, N52H, A75T, A80I, A85T, D91E, A98S
VL: QIVLTQSPAVMSASPGEKVTMTCTASSSVYYMYWYQQTPGSSPRLLIYDTSNLASGVPVRFSGSGSGTSYSLTISRMEAEDAATYYCQQWNTYPLTFGAGTKLELK

Further lines, the binder ahead of its results:

B1: antibody 3 (antibody, V domains shown)
VH: QVTLKESGPGILQPSQTLSLTCSFSGFSLTTFAMGIGWVRQPSGKGLEWLAHIWWDGEKYNNPVLKSRLTISKDTSKNQVFLRIANVDTPDTATYYCARISSIYYIIDNWGQGTSVTVSS
VL: DIVLTQSPATLSVTPGHSVSLSCRASQSISNNLHWYQKKSHESPRLLIKYVSQSISGIPSRFSGSGSGTDFTLSINSVETEDFGMYFCQQSYNWPLTFGAGTKLELK
binding: no binding (tested: 3 µg/ml)

B2: antibody 16 (antibody, V domains shown)
VH: QVTLKESGPGILQPSQTLSLTCSFSGFSLSTFALGVGWIRQPSGRGLEWLAHIWWDDDKYYNPALKSRLTISKDTSKNHVFLKIANVDTADTATYYCARITTYYYGMDYWGQGTSVTVSS
VL: B1 VL with T5S, H17D, S22F, S30G, N32H, K38Q, K39E, E42A, V51A
binding: no binding (tested: 3 µg/ml)

B3: antibody 34 (antibody, V domains shown)
VH: QVTLKESGPGILQPSQTLSLTCSFSGFSLSTFSLGVGWIRQSSGKGLEWLAHIWWDDEKYYNPALKSRLTISKDTSKNQVFLKIANVDAADTATYYCARAYYSKSYYALDYWGQGTSVTVSS
VL: DIQMTQSPSSLSASLGERVSLTCRASQEISGYLSWLQQKPDGTIKRLIYAASTLDSGVPKRFSGSRSGSDYSLAISSLESEDFADYYCLQYANFPFTFGSGTKLEIK
binding: no binding (tested: 3 µg/ml)

B5: antibody 5 (antibody, V domains shown)
VH: B8 VH with A3T, S42P, N52H, D58E, P63S, D74A, A75T, G101S, D111N
VL: QVVLTQSPALMSASPGEKVTMTCSAGSSVSCMYWYQQKPGSSPRVLIYDTSNLASGVPARFTGSGSGTSYSLTISRMEAEDAASYYCQQWNSYPLTFGAGTKLELK
binding: no binding (tested: 3 µg/ml)

B6: antibody 22 (antibody, V domains shown)
VH: B8 VH with A3T, S42P, N52H, D58E, P63S, D74A, A75T, A80V, G101S, D111N
VL: B5 VL with C31Y, S84T
binding: no binding (tested: 3 µg/ml)

B7: antibody 42 (antibody, V domains shown)
VH: B8 VH with A3T, F24L, M34R, S42P, N52H, D58E, A75T, A80V, K83R, G101Q
VL: B8 VL with Q1L, R18K, S24G, N26T, Y33F, L45V, M77V, A82V, N86Y, S91N
binding: no binding (tested: 3 µg/ml)
